# According to PubChem BioAssay AID588590 (National Center for Advancing Translational Sciences (NCATS), 2011):
# Protein sequences, listed by entry. Tags and fused reporters are not part of them. Lines headed by an entry give the natural chain unless they say otherwise; changes in a name come on top.
# UniProt Q9UNA4: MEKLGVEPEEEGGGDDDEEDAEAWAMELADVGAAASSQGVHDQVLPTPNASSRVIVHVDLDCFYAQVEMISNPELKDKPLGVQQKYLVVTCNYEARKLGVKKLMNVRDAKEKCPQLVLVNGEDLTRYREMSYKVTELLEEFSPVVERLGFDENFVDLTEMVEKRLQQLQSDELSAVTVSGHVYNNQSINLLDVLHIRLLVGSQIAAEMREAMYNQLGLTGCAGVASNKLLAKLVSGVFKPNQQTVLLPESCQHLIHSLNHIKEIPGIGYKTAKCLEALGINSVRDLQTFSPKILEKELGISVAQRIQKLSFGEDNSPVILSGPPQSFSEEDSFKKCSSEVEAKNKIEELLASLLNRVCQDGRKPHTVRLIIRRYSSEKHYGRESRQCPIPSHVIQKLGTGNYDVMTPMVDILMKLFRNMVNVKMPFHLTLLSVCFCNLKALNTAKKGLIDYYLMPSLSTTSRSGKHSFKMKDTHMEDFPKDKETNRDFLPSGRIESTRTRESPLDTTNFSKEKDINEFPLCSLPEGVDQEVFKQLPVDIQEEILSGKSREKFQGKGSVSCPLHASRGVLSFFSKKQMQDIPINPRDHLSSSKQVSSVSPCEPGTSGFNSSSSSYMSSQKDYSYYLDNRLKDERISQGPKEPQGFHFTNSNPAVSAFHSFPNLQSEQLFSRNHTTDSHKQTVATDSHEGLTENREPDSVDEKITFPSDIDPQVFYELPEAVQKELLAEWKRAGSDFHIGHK
# Screen size: about 390,000 compounds; about 4,000 (1%) were called active. The inconclusive results got no clear call from the source; some entries with a clear call stand among them for comparison. Calls follow the shape of the dose curve; as a rule, active = well fitted inhibition curve with a large enough effect; inconclusive = small, poorly fitted or top-dose-only effect, or another doubt; inactive = no such curve, though single readings can be large or run the other way. Where the call is inconclusive, the potency comes from a doubtful curve fit.
# Biological target: DNA polymerase iota (Homo sapiens) (UniProt Q9UNA4)
# Experiment: qHTS for Inhibitors of Polymerase Iota
# Conditions: Pol iota fluorescent replication assay, 10 min; series mostly up to 115 µM; activity, negative = inhibition: at the top concentration
# Method in brief: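 Fluorescent replication assay read twice, at 0 min and 10 min after adding 50 nM (final) substrate. Enzyme (10 nM) and compounds were first incubated 15 min at room temperature; enzyme-free buffer wells were negative controls.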
# Potency is read from the fitted curve at half-maximal effect.
SMILES,Potency,"activity, negative = inhibition"
CCCc1nc2oc3cc(OC)ccc3c(=O)c2c(=O)n1Cc1ccco1,"inconclusive: 50.1 µM [inhibitor, partial curve]",
CCn1c2ccccc2c2cc(NC(=O)c3ccc(=O)oc3)ccc21,active: 50.1 µM,
Cc1ncc(CO)c(CO)c1O,"inconclusive: 35.5 µM [inhibitor, partial curve, poor fit]",
Cc1ccc(C)c(NC(=O)CSc2nnc(-c3cc4occc4n3C)n2-c2ccccc2C)c1,,inactive: 13.9%
COc1cc(OC)c(NC(=O)c2noc3c2CSc2ccccc2-3)cc1Cl,,inactive: -3.54%
O=C(NC1CCN(Cc2ccccc2)CC1)c1cccc(S(=O)(=O)Nc2ccc(SC(F)F)cc2)c1,"inconclusive: 25.1 µM [inhibitor, single point]",
Clc1cccc(Cl)c1CN1CCN(c2ncccn2)CC1,"inconclusive: 14.1 µM [inhibitor, full curve, poor fit]",
COC(=O)c1ccc2c(c1)NC(=O)C(N1CCCCC1)S2 (stereo not given),"inconclusive: 100 µM [inhibitor, partial curve, poor fit]",
CCOc1cc(/C=C2\SC(=S)N(NS(=O)(=O)c3ccccc3)C2=O)ccc1O,"inconclusive: 15.8 µM [inhibitor, single point]",
CC(=O)/C=C/c1ccc2ccccc2n1,"inconclusive: 2.82 µM [inhibitor, full curve, poor fit]",
COc1ccc(CCNC(=O)CCCn2nc(C)c3sc4ccccc4c3c2=O)c(OC)c1,"inconclusive: 89.1 µM [inhibitor, partial curve, poor fit]",
CCOc1ccc(NC(=O)Cn2c(=O)n(CCCS(=O)(=O)C3CCCCC3)c(=O)c3ccccc32)cc1,,inactive: -12.8%
CCc1ccccc1NC(=O)CCC(=O)OCC(=O)c1ccc(-c2ccccc2)cc1,"inconclusive: 44.7 µM [inhibitor, partial curve, poor fit]",
CCOc1c2ccc(C(=O)NCc3ccccc3OC)cc2nn1CC,"inconclusive: 3.55 µM [inhibitor, partial curve, poor fit]",
CCOC(=O)C1CCN(C(c2ccc(C)cc2)c2c(O)cc(C)n(CCOC)c2=O)CC1 (stereo not given),,inactive: 4.91%
CCOc1ccc(NC(=O)c2ccc(Cn3nc(C)cc3C)o2)cc1,"inconclusive: 89.1 µM [inhibitor, partial curve, poor fit]",
O=S(=O)(/N=S1/CC=CCN1S(=O)(=O)c1ccccc1)c1ccccc1 (stereo not given),,inactive: -1.14%
CC(C)CN(C(=O)COC(=O)c1ccc(-c2ccccc2)cc1)C1CCS(=O)(=O)C1 (stereo not given),,inactive: 148%
CS(=O)(=O)N1CCC(C(=O)Nc2ccc(Oc3ccccc3)cc2)CC1,"inconclusive: 112 µM [inhibitor, single point]",
Nc1nnnn1/N=C/C(Br)=C/c1ccccc1,"inconclusive: 28.2 µM [inhibitor, partial curve]",
O=C1/C(=C/c2ccccc2O)SC(=S)N1Cc1cccnc1,"inconclusive: 11.2 µM [inhibitor, partial curve, poor fit]",
COc1ccc(/C=C2\CCn3c2nc2cc(C(=O)O)ccc2c3=O)cc1,"inconclusive: 0.708 µM [inhibitor, full curve, poor fit]",

SMILES,Potency,"activity, negative = inhibition"
O=C(CCNS(=O)(=O)c1ccc2[nH]c(=O)oc2c1)Nc1ccccc1,"inconclusive: 39.8 µM [inhibitor, partial curve, poor fit]",
O=c1cc(O)n(C2CCCCCC2)c(=O)[nH]1,"inconclusive: 17.8 µM [inhibitor, partial curve, poor fit]",
CCCc1nc2ccccc2c(C(=O)OC(C)C(=O)NCc2ccc3c(c2)OCO3)c1CC (stereo not given),"inconclusive: 50.1 µM [inhibitor, partial curve, poor fit]",
COc1ccc(CCNc2ncnc3c2[nH]c2cc(OC)c(OC)cc23)cc1OC,"inconclusive: 28.2 µM [inhibitor, single point]",
CCn1c([N+](=O)[O-])nc2c1c(=O)[nH]c(=O)n2C,"inconclusive: 39.8 µM [inhibitor, single point]",
Cc1ccc(C(=O)Oc2cc(-c3ccc4c(c3)OCO4)cc(=O)c3c(C)oc(C)c23)cc1,"inconclusive: 79.4 µM [inhibitor, partial curve, poor fit]",
Cc1ccccc1NC(=O)CSc1nc(-c2ccco2)nc2cc(=O)[nH]n12,"inconclusive: 79.4 µM [inhibitor, partial curve, poor fit]",
CC1CCN(C(C)C(=O)Nc2ccccc2-c2ccccc2)CC1 (stereo not given),"inconclusive: 25.1 µM [inhibitor, single point]",
O=C(NN=C1CCCC1)c1cccc(O)c1,,inactive: 14.4%
O=C1N/C(=C/c2ccc(N3CCOCC3)o2)C(=O)N1c1ccccc1,"inconclusive: 2.24 µM [inhibitor, partial curve, poor fit]",
Cc1cccc2cc(/C=C3\N=C(c4ccccc4)OC3=O)c(N3CCOCC3)nc12,,inactive: 26.2%
O=C1Nc2ccc(F)cc2C12Nc1ccccc1-c1nnc(SCc3ccccc3)nc1O2 (stereo not given),"inconclusive: 14.1 µM [inhibitor, partial curve, poor fit]",
Cc1ccc(-c2csc(=Nc3ccccc3)n2Cc2ccc3c(c2)OCO3)cc1,,inactive: -30.3%
NS(=O)(=O)c1ccc(NC(=O)c2cccc(N3C(=O)c4ccccc4C3=O)c2)cc1,"inconclusive: 50.1 µM [inhibitor, partial curve, poor fit]",
Cn1cc(/C=C/c2cc[n+](C)cc2)c2cc(F)ccc21,,inactive: 44.9%
O=C1NN(c2ccccc2)C(=O)/C1=C/c1ccc(Sc2cccc3ccccc23)o1,active: 11.2 µM,
CCc1ccccc1NC(=O)C(C)n1c(=O)cc(C)c2c(C)nn(-c3ccccc3)c21 (stereo not given),,inactive: -6.11%
CC(C)(C)NC(=O)NC(=O)CSc1nnc(COc2ccccc2Cl)o1,,inactive: 0.593%
CCOC(=O)Cn1nc(Cc2ccccc2)c2ccccc2c1=O,"inconclusive: 39.8 µM [inhibitor, single point]",
Cc1ccc(-n2nnnc2C(Cl)c2nnnn2-c2ccc(C)cc2)cc1,"inconclusive: 10 µM [inhibitor, partial curve, poor fit]",
COC(=O)C1=C(C)N(c2ccc(C)c(C)c2)/C(=C/c2ccco2)C1=O,"inconclusive: 56.2 µM [inhibitor, partial curve, poor fit]",
O=C(NCc1ccc2c(c1)OCO2)c1ccc2c(c1)N(Cc1ccccc1F)C(=O)c1ccccc1S2=O (stereo not given),,inactive: 13.5%

SMILES,Potency,"activity, negative = inhibition"
O=C(CCSc1nnc2ccc3ccccc3n12)Nc1ccc(F)cc1,"inconclusive: 39.8 µM [inhibitor, single point]",
O=C(O)Cn1cc(/C=C2/SC(=O)N(CC(=O)N3CCCCCC3)C2=O)c2ccccc21,"inconclusive: 39.8 µM [inhibitor, single point]",
COc1ccc(/C=C/C(=O)c2cc(C(=O)/C=C/c3ccc(OC)cc3)c(O)cc2O)cc1,,inactive: 3.17%
Cc1ccc(NC(=O)c2ccc(S(=O)(=O)N3CCCCC3)cc2)cc1,"inconclusive: 79.4 µM [inhibitor, partial curve, poor fit]",
CCOc1ccc(C2=Nn3c(CC)nnc3SC2)cc1,"inconclusive: 35.5 µM [inhibitor, partial curve, poor fit]",
Cc1ccccc1NS(=O)(=O)c1nnc(NC(=O)C(C)C)s1,,inactive: 18.9%
COc1ccc(-c2nnc(SCC(=O)Nc3ccccc3)n2C)cc1,"inconclusive: 89.1 µM [inhibitor, partial curve, poor fit]",
O=C(NCCCN1CCCCC1)c1ccc(CS(=O)c2ccc(F)cc2)o1 (stereo not given),"inconclusive: 39.8 µM [inhibitor, single point]",
O=C1[C@@H](Oc2ccccc2)[C@@H](c2ccncc2)N1c1ccncc1,"inconclusive: 79.4 µM [inhibitor, partial curve, poor fit]",
Nc1[nH]c(N=NC(=O)c2ccc(Cl)cc2)c2ccccc12,,inactive: 18.7%
Cc1[nH]cnc1C(=O)N/N=C/c1ccc([N+](=O)[O-])s1,"inconclusive: 3.16 µM [inhibitor, full curve]",
CCOC(=O)CCc1c(C)c2ccc3c(c2oc1=O)CN(CCCO)CO3,"inconclusive: 2.51 µM [inhibitor, partial curve, poor fit]",
O=C(CN(c1ccc(Cl)c(C(F)(F)F)c1)S(=O)(=O)c1ccccc1)Nc1cccnc1,"inconclusive: 100 µM [inhibitor, partial curve, poor fit]",
C=CCc1cc(/C=C2/NC(=S)NC2=O)cc(OC)c1O,"inconclusive: 39.8 µM [inhibitor, single point]",
COc1ccccc1N1CCN(/N=C\c2cccnc2)CC1,"inconclusive: 12.6 µM [inhibitor, full curve]",
CC(C)n1nnnc1SCC(=O)NCc1ccco1,"inconclusive: 28.2 µM [inhibitor, single point]",
Oc1cc(-c2ccncc2)cc2cccnc12,"inconclusive: 20 µM [inhibitor, partial curve, poor fit]",
CC1=NN(c2ccccc2)C(=O)/C1=C\c1c(C)[nH]n(-c2ccccc2)c1=O,,inactive: 6.35%
Cc1nc2ccccn2c1-c1csc(NCc2ccco2)n1,,inactive: 2.93%
CC(=O)N1CCN(c2ccc(S(=O)(=O)NCCN(C(C)C)C(C)C)cc2[N+](=O)[O-])CC1,"inconclusive: 89.1 µM [inhibitor, partial curve, poor fit]",
Cc1nn(-c2ccccc2)c(C)c1C(=O)OCC(=O)N1c2ccccc2NC(=O)C1(C)C,"inconclusive: 22.4 µM [inhibitor, single point]",

# Sorted by number of heavy atoms (largest number first): part of the list above.
SMILES,Potency,"activity, negative = inhibition"
COc1ccc(/C=C/C(=O)c2cc(C(=O)/C=C/c3ccc(OC)cc3)c(O)cc2O)cc1,,inactive: 3.17%
COc1ccc(-c2nnc(SCC(=O)Nc3ccccc3)n2C)cc1,"inconclusive: 89.1 µM [inhibitor, partial curve, poor fit]",
Cc1[nH]cnc1C(=O)N/N=C/c1ccc([N+](=O)[O-])s1,"inconclusive: 3.16 µM [inhibitor, full curve]",
